According to publication PMC3260246:
These are yes or no findings as the source states them, for the method shown. Some results given as binding are weak or reduced against the parent protein; the word gives no strength.

Amino acid sequences for entries named in this document (tags omitted). A change or cut given only in a name is not applied to a line headed by its entry.
UniProt P04792: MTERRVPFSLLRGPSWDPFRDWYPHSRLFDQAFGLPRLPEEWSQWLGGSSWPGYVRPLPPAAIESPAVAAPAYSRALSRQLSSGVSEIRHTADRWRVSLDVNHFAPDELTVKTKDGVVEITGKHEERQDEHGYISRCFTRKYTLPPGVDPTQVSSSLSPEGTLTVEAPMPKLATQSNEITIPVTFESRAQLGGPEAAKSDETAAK

Molecular target: Hsp27 R12A mutant (human) (UniProt P04792)
Test: multi-angle light scattering; molar mass and hydrodynamic radius of wild-type and R12A proteins, ASTRA 5.3.4; conditions as in refs 32, 58; both purified

“Hsp27 R12A mutant (from UniProt P04792 1-205)” was tested, and the binding was “binds”.
